This passage reports log2 fold change results from the supplement of paper PMC10849652.

By UniProt entry, the sequences of proteins in these tests, tags left out. Where a name states a change or a piece, a line headed by the entry shows the natural chain unless it says otherwise.
UniProt Q5SRI9: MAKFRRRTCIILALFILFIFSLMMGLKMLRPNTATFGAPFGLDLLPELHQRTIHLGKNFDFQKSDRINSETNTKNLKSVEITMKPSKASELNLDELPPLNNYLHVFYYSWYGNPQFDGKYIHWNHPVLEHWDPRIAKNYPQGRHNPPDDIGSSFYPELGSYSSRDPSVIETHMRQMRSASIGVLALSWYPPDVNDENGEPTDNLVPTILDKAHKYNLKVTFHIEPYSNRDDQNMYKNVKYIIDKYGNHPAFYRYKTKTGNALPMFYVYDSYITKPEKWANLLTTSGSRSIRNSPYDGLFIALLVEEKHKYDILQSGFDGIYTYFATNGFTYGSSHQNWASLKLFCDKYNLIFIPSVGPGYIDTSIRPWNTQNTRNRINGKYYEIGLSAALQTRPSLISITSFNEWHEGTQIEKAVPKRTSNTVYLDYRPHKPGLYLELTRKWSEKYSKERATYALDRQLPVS
UniProt O95777: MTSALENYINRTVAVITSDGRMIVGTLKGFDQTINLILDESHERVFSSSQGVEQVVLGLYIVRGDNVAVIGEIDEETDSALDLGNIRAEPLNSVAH
UniProt Q9ULX9: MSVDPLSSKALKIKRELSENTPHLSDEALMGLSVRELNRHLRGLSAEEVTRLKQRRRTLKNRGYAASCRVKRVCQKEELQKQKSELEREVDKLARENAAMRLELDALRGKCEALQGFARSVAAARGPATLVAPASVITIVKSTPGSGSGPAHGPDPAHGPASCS
UniProt P62312: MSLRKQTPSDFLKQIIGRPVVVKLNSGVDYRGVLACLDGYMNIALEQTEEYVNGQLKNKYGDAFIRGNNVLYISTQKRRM
UniProt Q9HD34: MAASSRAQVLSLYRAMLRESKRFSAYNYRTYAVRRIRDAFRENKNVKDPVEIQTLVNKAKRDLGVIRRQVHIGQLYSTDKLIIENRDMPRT
UniProt Q99698: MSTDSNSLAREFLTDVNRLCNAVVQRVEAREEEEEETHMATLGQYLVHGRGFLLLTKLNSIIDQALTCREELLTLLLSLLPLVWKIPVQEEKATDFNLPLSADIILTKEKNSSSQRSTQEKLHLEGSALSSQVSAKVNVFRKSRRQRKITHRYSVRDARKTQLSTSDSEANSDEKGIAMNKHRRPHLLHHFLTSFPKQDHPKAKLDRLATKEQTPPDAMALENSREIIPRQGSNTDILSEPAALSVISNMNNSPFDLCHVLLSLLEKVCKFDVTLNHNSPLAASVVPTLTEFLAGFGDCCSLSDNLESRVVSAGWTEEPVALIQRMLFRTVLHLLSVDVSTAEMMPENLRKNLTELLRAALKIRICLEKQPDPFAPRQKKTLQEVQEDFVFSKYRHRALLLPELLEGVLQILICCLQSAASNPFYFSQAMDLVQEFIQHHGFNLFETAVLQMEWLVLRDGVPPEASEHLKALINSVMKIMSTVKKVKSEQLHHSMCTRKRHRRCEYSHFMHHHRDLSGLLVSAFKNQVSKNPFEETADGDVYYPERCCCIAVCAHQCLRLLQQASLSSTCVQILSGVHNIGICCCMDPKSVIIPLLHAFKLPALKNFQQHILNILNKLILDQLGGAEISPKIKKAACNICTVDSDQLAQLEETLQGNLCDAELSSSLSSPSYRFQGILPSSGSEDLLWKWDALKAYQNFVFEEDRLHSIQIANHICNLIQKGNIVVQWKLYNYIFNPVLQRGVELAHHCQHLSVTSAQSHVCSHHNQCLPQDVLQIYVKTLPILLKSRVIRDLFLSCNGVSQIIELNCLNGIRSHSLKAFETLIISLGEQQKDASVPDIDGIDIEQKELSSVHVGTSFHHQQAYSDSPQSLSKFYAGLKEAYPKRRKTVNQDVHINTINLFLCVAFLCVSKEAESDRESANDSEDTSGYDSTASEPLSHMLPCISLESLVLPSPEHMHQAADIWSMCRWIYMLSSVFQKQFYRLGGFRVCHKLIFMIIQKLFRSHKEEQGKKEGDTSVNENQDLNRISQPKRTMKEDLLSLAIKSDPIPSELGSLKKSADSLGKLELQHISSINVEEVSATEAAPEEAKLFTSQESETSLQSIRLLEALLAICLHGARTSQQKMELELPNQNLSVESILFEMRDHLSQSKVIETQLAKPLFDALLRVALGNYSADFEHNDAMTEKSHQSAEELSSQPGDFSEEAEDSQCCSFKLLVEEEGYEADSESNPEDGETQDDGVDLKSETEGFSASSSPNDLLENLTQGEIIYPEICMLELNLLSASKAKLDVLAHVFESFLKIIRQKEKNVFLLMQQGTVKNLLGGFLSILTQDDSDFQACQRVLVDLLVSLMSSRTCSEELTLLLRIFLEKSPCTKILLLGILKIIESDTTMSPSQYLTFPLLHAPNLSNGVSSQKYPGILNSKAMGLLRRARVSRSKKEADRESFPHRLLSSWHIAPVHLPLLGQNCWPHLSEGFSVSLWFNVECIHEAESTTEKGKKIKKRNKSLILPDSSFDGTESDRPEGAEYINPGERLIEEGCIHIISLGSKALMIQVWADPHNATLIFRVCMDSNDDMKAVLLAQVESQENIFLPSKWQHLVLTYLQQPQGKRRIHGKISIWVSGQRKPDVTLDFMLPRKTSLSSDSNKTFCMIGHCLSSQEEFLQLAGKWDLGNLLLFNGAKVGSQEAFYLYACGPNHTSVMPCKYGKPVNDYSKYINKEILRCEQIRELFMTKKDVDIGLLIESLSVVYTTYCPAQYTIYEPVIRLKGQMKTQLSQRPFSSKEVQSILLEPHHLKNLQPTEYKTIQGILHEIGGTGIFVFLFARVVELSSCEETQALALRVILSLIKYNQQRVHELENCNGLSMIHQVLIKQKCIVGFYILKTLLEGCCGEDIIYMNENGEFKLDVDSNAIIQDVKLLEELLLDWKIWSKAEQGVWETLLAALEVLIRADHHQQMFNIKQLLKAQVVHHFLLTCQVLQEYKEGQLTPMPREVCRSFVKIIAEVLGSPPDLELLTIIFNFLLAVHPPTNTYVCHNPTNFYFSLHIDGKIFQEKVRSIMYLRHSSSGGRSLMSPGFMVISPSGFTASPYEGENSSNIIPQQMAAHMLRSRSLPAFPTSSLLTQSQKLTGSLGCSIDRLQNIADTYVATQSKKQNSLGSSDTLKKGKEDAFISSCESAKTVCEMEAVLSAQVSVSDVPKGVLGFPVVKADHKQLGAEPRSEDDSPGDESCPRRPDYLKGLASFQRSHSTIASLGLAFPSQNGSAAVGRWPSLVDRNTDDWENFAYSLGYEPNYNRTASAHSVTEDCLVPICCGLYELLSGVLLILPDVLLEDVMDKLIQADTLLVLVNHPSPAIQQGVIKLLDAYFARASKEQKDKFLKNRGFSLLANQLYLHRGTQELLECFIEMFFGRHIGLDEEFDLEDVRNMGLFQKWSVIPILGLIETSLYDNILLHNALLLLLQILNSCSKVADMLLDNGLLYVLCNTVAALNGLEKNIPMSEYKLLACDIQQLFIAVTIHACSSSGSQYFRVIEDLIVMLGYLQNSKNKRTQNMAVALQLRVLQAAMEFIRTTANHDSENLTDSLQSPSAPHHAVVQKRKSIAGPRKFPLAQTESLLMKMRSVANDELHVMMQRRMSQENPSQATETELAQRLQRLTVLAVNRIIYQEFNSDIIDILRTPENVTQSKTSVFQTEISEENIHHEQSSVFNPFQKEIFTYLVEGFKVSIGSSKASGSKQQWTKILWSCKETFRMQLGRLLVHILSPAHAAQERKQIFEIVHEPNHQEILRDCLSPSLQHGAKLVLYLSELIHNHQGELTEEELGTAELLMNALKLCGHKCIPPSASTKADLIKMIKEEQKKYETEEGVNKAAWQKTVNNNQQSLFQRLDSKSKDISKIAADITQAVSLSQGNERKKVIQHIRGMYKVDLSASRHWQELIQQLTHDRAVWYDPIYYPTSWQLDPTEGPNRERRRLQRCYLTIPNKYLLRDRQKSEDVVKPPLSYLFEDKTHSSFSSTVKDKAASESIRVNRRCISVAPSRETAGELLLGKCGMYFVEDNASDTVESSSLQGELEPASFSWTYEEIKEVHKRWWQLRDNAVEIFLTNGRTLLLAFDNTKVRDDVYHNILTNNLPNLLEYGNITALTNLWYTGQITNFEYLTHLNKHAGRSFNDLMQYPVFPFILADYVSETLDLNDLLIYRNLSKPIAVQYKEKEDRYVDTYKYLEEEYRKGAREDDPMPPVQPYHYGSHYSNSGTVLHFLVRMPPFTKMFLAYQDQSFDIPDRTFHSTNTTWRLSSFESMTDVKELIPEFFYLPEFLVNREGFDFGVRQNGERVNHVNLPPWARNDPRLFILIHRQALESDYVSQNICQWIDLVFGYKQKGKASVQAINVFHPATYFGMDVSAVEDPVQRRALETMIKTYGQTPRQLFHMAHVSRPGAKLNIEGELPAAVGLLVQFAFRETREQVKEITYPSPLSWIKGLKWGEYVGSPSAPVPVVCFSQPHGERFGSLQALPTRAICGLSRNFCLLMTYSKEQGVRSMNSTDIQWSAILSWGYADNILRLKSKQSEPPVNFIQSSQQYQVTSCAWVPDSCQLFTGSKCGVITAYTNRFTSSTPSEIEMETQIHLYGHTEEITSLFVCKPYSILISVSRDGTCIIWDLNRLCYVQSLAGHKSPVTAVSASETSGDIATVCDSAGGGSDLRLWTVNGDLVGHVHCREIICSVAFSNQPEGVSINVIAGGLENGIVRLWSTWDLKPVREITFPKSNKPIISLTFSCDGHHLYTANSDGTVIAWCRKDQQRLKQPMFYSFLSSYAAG
UniProt Q15013: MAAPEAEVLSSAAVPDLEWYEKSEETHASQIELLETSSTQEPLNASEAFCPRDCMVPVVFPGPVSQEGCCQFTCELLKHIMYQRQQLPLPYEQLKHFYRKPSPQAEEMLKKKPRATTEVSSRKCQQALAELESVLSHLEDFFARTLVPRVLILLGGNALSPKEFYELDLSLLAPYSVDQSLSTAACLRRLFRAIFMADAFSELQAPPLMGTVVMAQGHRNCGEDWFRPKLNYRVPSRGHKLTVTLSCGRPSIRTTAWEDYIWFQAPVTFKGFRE
UniProt Q969L4: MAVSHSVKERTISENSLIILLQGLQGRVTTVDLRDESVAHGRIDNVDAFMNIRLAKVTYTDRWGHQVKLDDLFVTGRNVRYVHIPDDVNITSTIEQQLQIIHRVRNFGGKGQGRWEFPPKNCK
UniProt Q9Y4Y9: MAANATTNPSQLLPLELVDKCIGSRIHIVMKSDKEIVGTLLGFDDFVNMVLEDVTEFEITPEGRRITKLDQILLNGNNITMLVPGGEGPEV
UniProt Q8WVR3: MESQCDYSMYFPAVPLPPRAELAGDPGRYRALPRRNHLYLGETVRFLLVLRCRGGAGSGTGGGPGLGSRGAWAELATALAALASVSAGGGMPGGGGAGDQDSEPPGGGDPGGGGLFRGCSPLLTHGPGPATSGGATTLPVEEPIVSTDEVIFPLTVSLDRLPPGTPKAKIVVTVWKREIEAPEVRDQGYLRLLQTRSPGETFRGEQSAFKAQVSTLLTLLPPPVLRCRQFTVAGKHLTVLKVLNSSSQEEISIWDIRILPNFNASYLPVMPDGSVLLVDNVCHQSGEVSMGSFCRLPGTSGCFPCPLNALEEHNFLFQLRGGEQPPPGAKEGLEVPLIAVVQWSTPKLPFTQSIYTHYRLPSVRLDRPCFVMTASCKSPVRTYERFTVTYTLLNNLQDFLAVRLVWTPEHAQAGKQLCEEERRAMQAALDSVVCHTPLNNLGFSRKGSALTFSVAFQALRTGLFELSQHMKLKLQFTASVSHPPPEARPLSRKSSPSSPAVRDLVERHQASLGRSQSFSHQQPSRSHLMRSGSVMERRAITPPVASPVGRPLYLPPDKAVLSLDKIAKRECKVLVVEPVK
UniProt Q12851: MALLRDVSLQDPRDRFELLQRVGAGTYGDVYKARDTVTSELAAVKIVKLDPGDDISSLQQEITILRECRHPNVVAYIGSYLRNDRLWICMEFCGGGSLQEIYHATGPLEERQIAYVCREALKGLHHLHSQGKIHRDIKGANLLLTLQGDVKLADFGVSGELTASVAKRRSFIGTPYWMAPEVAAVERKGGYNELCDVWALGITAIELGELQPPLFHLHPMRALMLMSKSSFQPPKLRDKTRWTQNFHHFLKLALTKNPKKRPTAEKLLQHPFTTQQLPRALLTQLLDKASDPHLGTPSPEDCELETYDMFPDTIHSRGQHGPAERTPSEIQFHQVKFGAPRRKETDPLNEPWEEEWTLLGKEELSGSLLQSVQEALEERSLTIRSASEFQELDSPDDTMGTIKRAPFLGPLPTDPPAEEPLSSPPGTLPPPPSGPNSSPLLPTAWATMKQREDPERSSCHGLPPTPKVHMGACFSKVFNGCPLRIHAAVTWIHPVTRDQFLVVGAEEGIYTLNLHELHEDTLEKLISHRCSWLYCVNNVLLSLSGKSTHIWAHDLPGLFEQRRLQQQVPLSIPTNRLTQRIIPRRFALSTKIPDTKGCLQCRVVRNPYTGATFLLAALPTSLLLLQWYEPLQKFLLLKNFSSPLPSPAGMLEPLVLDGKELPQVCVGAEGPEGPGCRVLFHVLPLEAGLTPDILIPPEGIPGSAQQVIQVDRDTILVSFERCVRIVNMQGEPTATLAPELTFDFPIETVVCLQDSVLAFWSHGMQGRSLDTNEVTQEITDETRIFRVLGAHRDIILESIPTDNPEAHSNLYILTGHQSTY

The other results are listed elsewhere or left out.

Compound in one experiment: Cc1nc(Nc2ncc(C(=O)Nc3c(C)cccc3Cl)s2)cc(N2CCN(CCO)CC2)n1 [dasatinib]
The experiment can be described thus: log2 fold change, soluble protein after heating vs DMSO (PISA); higher = thermal stabilisation; K562 cells, 10 uM, 30 min; active = over 0.2 and 3.5 SD of the protein, either way, in both replicates (recomputed). A digest of the protocol: (§1)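 Quantification of soluble protein used TMTpro 16plex LC-MS/MS, with channel sums equalised. Samples were the supernatant after 21,000xg for 90 min of pooled aliquots from K562 cells (2×10^6 cells/mL) treated with 10 μM compound for 30 min, heated for 3 min over 48°C-58°C, and extracted in PBS with 0.5% NP-40 at 4°C. Values, from duplicates, describe thermal stability against control samples on a log2 fold-change scale.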
MANEA (UniProt Q5SRI9): the log2 fold change was inactive: 0.092.
Turning to MARK2 (UniProt E9PC69), the log2 fold change was inactive: -0.158.
On the same count and under the same terms, next, LSM8 (UniProt O95777): inactive: 0.033.
In the case of MAFF (UniProt Q9ULX9), the log2 fold change is inactive: 0.077.
Consider MAN2B2 (UniProt Q9Y2E5), for which the log2 fold change was inactive: 0.013.
As to MAPK1 (UniProt P28482), the log2 fold change was inactive: 0.021.
As for LSM6 (UniProt P62312), the log2 fold change was inactive: 0.055.
In the case of LYSMD3 (UniProt Q7Z3D4), the log2 fold change was inactive: 0.015.
Regarding MADD isoform 2 (UniProt Q8WXG6), the log2 fold change was inactive: -0.003.
Turning to LYRM4 (UniProt Q9HD34), the log2 fold change is inactive: -0.101.
For the target LYN (UniProt P07948), the log2 fold change was active: -0.419.
Regarding LYST (UniProt Q99698), the log2 fold change is inactive: 0.193.
On to MAD2L1BP isoform 3 (UniProt Q15013), for which the log2 fold change is inactive: -0.034.
Same read-out and setting: next, MACO1 (UniProt Q8N5G2): inactive: -0.098.
LYZ (UniProt P61626): the log2 fold change was inactive: -0.16.
For MAPK6 (UniProt Q16659), the log2 fold change is inactive: 0.04.
The same measure, in the same setting: next, LTBR (UniProt P36941): inactive: 0.086.
For the target LRRC8E (UniProt Q6NSJ5), the log2 fold change was inactive: -0.026.
On to MAP3K2 (UniProt Q9Y2U5), for which the log2 fold change is inactive: 0.035.
In the case of LRRC8B (UniProt Q6P9F7), the log2 fold change was inactive: -0.163.
Same read-out and setting: next, MAP3K4 isoform 2 (UniProt Q9Y6R4): active: 0.534.
Same read-out and setting: next, LSM10 (UniProt Q969L4): inactive: 0.172; MAP3K20 (UniProt Q9NYL2): active: -0.712.
The same measure, in the same setting: next, LRWD1 (UniProt Q9UFC0): inactive: -0.195.

Compound in the next experiment: Cc1ncc(-c2ccnc(Nc3ccc(S(C)(=O)=O)cc3)n2)n1C(C)C
The experiment is described as above. The procedure, abridged:
as §1
In the case of MANEA (UniProt Q5SRI9), the log2 fold change is inactive: 0.026.
Turning to LSM5 (UniProt Q9Y4Y9), the log2 fold change is inactive: -0.142.
As for LYL1 (UniProt P12980), the log2 fold change is inactive: -0.074.
For MARK2 (UniProt E9PC69), the log2 fold change is inactive: -0.031.
Still for that read-out and setting: next, LSM8 (UniProt O95777): inactive: 0.003.
Still for that read-out and setting: next, MAFF (UniProt Q9ULX9): inactive: 0.018.
Regarding MAN2B2 (UniProt Q9Y2E5), the log2 fold change is inactive: -0.023.
MAPK1 (UniProt P28482): the log2 fold change is inactive: -0.024.
Consider LSM6 (UniProt P62312), for which the log2 fold change is inactive: -0.009.
On the same count and under the same terms, next, LYSMD3 (UniProt Q7Z3D4): inactive: -0.028; MADD isoform 2 (UniProt Q8WXG6): inactive: 0.131; LYRM4 (UniProt Q9HD34): inactive: 0.022.
On to MAP7D3 (UniProt Q8IWC1), for which the log2 fold change was inactive: -0.039.
As to LYN (UniProt P07948), the log2 fold change is inactive: -0.043.
Same read-out and setting: next, MAP11 (UniProt Q8WVR3): inactive: -0.017.
LYST (UniProt Q99698): the log2 fold change was inactive: -0.16.
Take MAD2L1BP isoform 3 (UniProt Q15013): the log2 fold change was inactive: -0.013.
Consider MACO1 (UniProt Q8N5G2), for which the log2 fold change is inactive: 0.035.
LYZ (UniProt P61626): the log2 fold change is inactive: -0.015.
On to MAP4K5 (UniProt Q9Y4K4), for which the log2 fold change is inactive: -0.116.
Turning to MAPK6 (UniProt Q16659), the log2 fold change is inactive: 0.014.
Take LRRC8B (UniProt Q6P9F7): the log2 fold change was inactive: 0.039.
Still for that read-out and setting: next, MAP3K4 isoform 2 (UniProt Q9Y6R4): inactive: 0.027; LSM10 (UniProt Q969L4): inactive: 0.082.
Still for that read-out and setting: next, MAP4K2 (UniProt Q12851): inactive: -0.13.
The same measure, in the same setting: next, MAGEA1 (UniProt P43355): inactive: 0.079; MAP3K20 (UniProt Q9NYL2): inactive: -0.079; LRWD1 (UniProt Q9UFC0): inactive: 0.042.
